Reference: patent publication US11066414B2, “Cot modulators and methods of use thereof” (Gilead Sciences, Inc., priority 2015, dated 2021)
Structures were worked out from names or drawings and are uncertain.

Tested on: TNFα
Assay: Cot Monocyte TNFα Cell Based Assay
Conditions: read-out: EC50 TNF, LPS-stimulated human monocytes

## CC(C)(C)CNc1c(C#N)cnc2c(C#N)cc(N[C@H](c3cn([C@H]4C[C@@H]4F)nn3)c3cccc4cnccc34)cc12
  EC50: 23 nM
